Data as given in PubChem BioAssay AID602196 (INSERM, 2012).

Aim: 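Modifiers of cisplatin sensitivity in A549 cells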
System: human A549 lung cancer cells
Reagent: siRNA pair against human genes
Timing: 48 h transfection before cisplatin; time from cisplatin to read-out not stated
Conditions: cisplatin at a dose killing half of control-siRNA cells; exact dose and duration not given
Measured: 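Shift in cisplatin death relative to control siRNA, from -50 (all cells die) to +50 (no cells die); siRNAs harmful on their own scored 0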
Scale: two-siRNA summed score (-2 to +2): higher = both siRNAs protect from cisplatin killing; -2 means both sensitise
Hit rule: 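siRNAs harmful alone (LDH or WST-1) get 0; others get +1 for less and -1 for more cisplatin killing; genes are active when the two siRNAs give the same sign, summing to ±2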
Calls: active = both siRNAs shift cisplatin killing the same way; inactive = no consistent shift, or siRNA harmful alone
The whole screen tested about 23,000 reagents; this is an unselected part. 455 of them (2%) were called active. 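Active includes both protection and sensitisation; some change values fall well beyond the stated -50 to +50 range.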 A number with no mark means an inactive call. Not all columns of the deposit are shown. Not given: the amount of reagent.

gene	PubChem SID	two-siRNA summed score (-2 to +2)
SLC25A48	SID131502651	-1
ATOH1	SID131519646	1
LOC440793	SID131517487	0
MARCKS	SID131517360	0
TNFRSF11B	SID131521483	1
HROB	SID131516148	0
XAGE1B	SID131508630	0
EPM2AIP1	SID131522122	1
KIAA1912	SID131509174	0
FAM174B	SID131504644	0
KRT86	SID131519306	1
RASEF	SID131507775	0
KPTN	SID131520160	1
NMUR2	SID131515975	0
LOC442057	SID131521894	1
CLDN14	SID131501655	-1
TMCO1	SID131516837	0
LOC441449	SID131505390	0
PIK3IP1	SID131505399	0
LOC442074	SID131519786	1
LOC154323	SID131509846	0
SPEF1	SID131505439	0
LAMTOR4	SID131510629	0

Entries above whose target name begins with K or k (3):
gene	PubChem SID	two-siRNA summed score (-2 to +2)
KIAA1912	SID131509174	0
KRT86	SID131519306	1
KPTN	SID131520160	1
